# According to the supplement of paper PMC10331698:
# ± gives the standard deviation of the averaged measurements. Most entries show no effect beyond the scatter of the controls.
# Legend:
# Assay in all cases: level (log10 ratio to DMSO vehicle control); higher = higher biomarker level / cell amount than vehicle control
# [1] = compound: C=CC(=O)OCC(F)(F)C(F)(F)C(F)(F)COC(=O)C=C [1H,1H,5H,5H-Perfluoro-1,5-pentanediol diacrylate]; settings: 2200 nM; in DMSO
# Experimental: (§1)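 BioMAP Diversity Plus panel of 12 human primary cell co-culture systems (3C, 4H, LPS, SAg, BT, BF4T, BE3C, CASM3C, HDF3CGF, KF3CT, MyoF, Mphg). Compounds were added 1 h before stimulation and left for 24 h (MyoF 48 h; BT 72 h for soluble read-outs or 6 d for IgG). Biomarkers were read by ELISA, cytotoxicity by SRB, PBMC viability and proliferation by Alamar Blue. Each well value was divided by the mean of 8 DMSO control wells on the same plate and log10 transformed; duplicate blinded samples were tested at 4 concentrations.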
# [2] = compound: C=CC(=O)OCCC(F)(F)C(F)(F)C(F)(F)C(F)(F)C(F)(F)C(F)(F)C(F)(F)C(F)(F)F [8:2 Fluorotelomer acrylate]; settings: 2200 nM; in DMSO
# Experimental: as §1
# [3] = compound: OCCCC(F)(F)C(F)(F)C(F)(F)C(F)(F)C(F)(F)C(F)(F)C(F)(F)F [7:3 Fluorotelomer alcohol]; settings: 2200 nM; in DMSO
# Experimental: as §1
# [4] = compound: O=C(O)C(F)(F)C(F)(F)C(F)(F)C(F)(F)C(F)(F)C(F)(F)C(F)(F)C(F)(F)C(F)(F)C(F)(F)C(F)(F)C(F)(F)C(F)(F)F [Perfluorotetradecanoic acid]; settings: in DMSO
# Experimental: as §1
# Perfluoro-1-iodohexane = compound: FC(F)(F)C(F)(F)C(F)(F)C(F)(F)C(F)(F)C(F)(F)I [Perfluoro-1-iodohexane]; settings: in DMSO
# Experimental: as §1
# [5] = compound: O=S(=O)(O)C(F)(F)C(F)(F)C(F)(F)C(F)(F)C(F)(F)C(F)(F)F [Perfluorohexanesulfonic acid]; settings: 2200 nM; in DMSO
# Experimental: as §1
# Hexafluoroamylene glycol = compound: OCC(F)(F)C(F)(F)C(F)(F)CO [Hexafluoroamylene glycol]; settings: 2200 nM; in DMSO
# Experimental: as §1
# [6] = compound: O=C(O)C=C(C(F)(F)F)C(F)(F)F [3,3-Bis(trifluoromethyl)-2-propenoic acid]; settings: in DMSO
# Experimental: as §1
# [7] = compound: O=C(Cl)C(F)(F)C(F)(F)C(F)(F)C(=O)Cl [Hexafluoroglutaryl chloride]; settings: 2200 nM; in DMSO
# Experimental: as §1
# [8] = compound: FC(F)(I)C(F)(F)C(F)(F)C(F)(F)C(F)(F)C(F)(F)I [1,6-Diiodoperfluorohexane]; settings: 2200 nM; in DMSO
# Experimental: as §1
# [9] = compound: FC(F)(F)C(F)(C(F)(F)F)C(F)(F)C(F)(F)CC1CO1 [3-(Perfluoro-3-methylbutyl)-1,2-propenoxide]; settings: in DMSO
# Experimental: as §1
# [10] = compound: C=CC(=O)OCCC(F)(F)C(F)(F)C(F)(F)C(F)(F)F [2-(Perfluorobutyl)ethyl acrylate]; settings: 2200 nM; in DMSO
# Experimental: as §1
# [11] = compound: O=S(=O)(O)CCC(F)(F)C(F)(F)C(F)(F)C(F)(F)F [4:2 Fluorotelomer sulfonic acid]; settings: 2200 nM; in DMSO
# Experimental: as §1
Test System,level (log10) [1],level (log10) [2],level (log10) [3],level (log10) ([4]; 740 nM),level (log10) ([4]; 2200 nM),level (log10) (Perfluoro-1-iodohexane; 2200 nM),level (log10) (Perfluoro-1-iodohexane; 6700 nM),level (log10) (Perfluoro-1-iodohexane; 20000 nM),level (log10) (Perfluoro-1-iodohexane; 60000 nM),level (log10) [5],level (log10) (Hexafluoroamylene glycol),level (log10) ([6]; 2200 nM),level (log10) ([6]; 6700 nM),level (log10) ([6]; 20000 nM),level (log10) ([6]; 60000 nM),level (log10) [7],level (log10) [8],level (log10) ([9]; 740 nM),level (log10) ([9]; 2200 nM),level (log10) [10],level (log10) [11]
BF4T:CD90,-0.013 ± 0.021,-0.0085 ± 0.0078,0.004 ± 0.014,-0.0015 ± 0.0035,-0.006 ± 0.0042,0.007 ± 0.0071,-0.0085 ± 0.0035,-0.002 ± 0.018,-0.002 ± 0.011,0.001 ± 0.02,-0.0095 ± 0.018,0.0095 ± 0.043,-0.0205 ± 0.011,-0.022 ± 0.0042,-0.0235 ± 0.019,-0.0035 ± 0.0021,0.0065 ± 0.039,-0.01 ± 0.0042,-0.0105 ± 0.016,-0.006 ± 0.013,0.0045 ± 0.019
BF4T:CCL26/Eotaxin-3,0.0135 ± 0.071,0.0195 ± 0.042,0.037 ± 0.0057,0.022 ± 0.069,-0.044 ± 0.044,0.022 ± 0.011,0.0255 ± 0.0035,0.0135 ± 0.015,-0.0145 ± 0.059,0.0305 ± 0.037,0.0515 ± 0.09,-0.0435 ± 0.059,-0.089 ± 0.03,-0.124 ± 0.0014,-0.126 ± 0.067,0.0075 ± 0.022,-0.015,0.0155 ± 0.077,-0.004 ± 0.042,0.0225 ± 0.036,0.0005 ± 0.096
HDF3CGF:Collagen III,-0.165 ± 0.096,0.0345 ± 0.05,0.0125 ± 0.06,-0.037 ± 0.038,-0.0905 ± 0.023,-0.0075 ± 0.081,-0.0405 ± 0.066,-0.0755 ± 0.0021,-0.178 ± 0.13,0.0045 ± 0.011,-0.0335 ± 0.04,-0.0485 ± 0.037,-0.0905 ± 0.012,-0.0985 ± 0.029,-0.0635 ± 0.069,0.005 ± 0.034,-0.0985 ± 0.019,-0.011 ± 0.0099,-0.028 ± 0.054,-0.006 ± 0.0042,-0.0255 ± 0.091
LPS:CD69,-0.0145 ± 0.074,0.057 ± 0.045,-0.025 ± 0.0099,-0.007 ± 0.0042,0.001 ± 0.038,-0.0245 ± 0.012,-0.0185 ± 0.0064,-0.0025 ± 0.0035,-0.032 ± 0.0099,-0.009 ± 0.054,-0.0245 ± 0.056,-0.028 ± 0.042,-0.072 ± 0.02,-0.0565 ± 0.057,-0.028 ± 0.09,0.051 ± 0.013,0.018 ± 0.02,0.027 ± 0.061,-0.005 ± 0.034,-0.0085 ± 0.035,-0.013 ± 0.021
BT:sIL-17A,-0.34 ± 0.12,0.077 ± 0.059,-0.13 ± 0.26,0.03 ± 0.073,0.029 ± 0.095,-0.0115 ± 0.039,-0.004 ± 0.018,-0.0905 ± 0.12,-0.089 ± 0.2,0.0055 ± 0.16,0.006 ± 0.14,0.007 ± 0.075,0.0535 ± 0.043,-0.246 ± 0.1,-0.482 ± 0.0028,-0.095 ± 0.1,0.0465 ± 0.064,-0.0195 ± 0.066,0.004 ± 0.1,-0.0935 ± 0.11,-0.078 ± 0.028
3C:CD54/ICAM-1,0.0005 ± 0.0035,-0.0135 ± 0.05,0.0075 ± 0.015,0.013 ± 0.0028,0.003 ± 0.0014,0.014 ± 0.028,0 ± 0.0057,0.0025 ± 0.0078,0.012 ± 0.0014,-0.01 ± 0.018,-0.0065 ± 0.012,0.002 ± 0.011,-0.002 ± 0.0071,-0.018 ± 0.0071,-0.0095 ± 0.018,0.012 ± 0.0071,0.014 ± 0.034,-0.004 ± 0.016,-0.009 ± 0.013,0.004 ± 0.023,0.013 ± 0.0028
HDF3CGF:SRB,-0.095 ± 0.05,-0.0015 ± 0.025,0.003 ± 0.017,-0.018 ± 0.031,-0.004 ± 0.0071,0.0395 ± 0.032,0.021 ± 0.035,0.0085 ± 0.018,-0.0085 ± 0.067,0.0195 ± 0.00071,-0.038 ± 0.027,-0.004 ± 0.045,-0.014 ± 0.028,0.0125 ± 0.021,-0.022 ± 0.02,-0.0105 ± 0.03,0.027 ± 0.068,-0.03 ± 0.011,-0.024 ± 0.024,0.0005 ± 0.021,-0.0235 ± 0.037
lMphg:CD62E/E-Selectin,-0.012 ± 0.013,0.003 ± 0.038,-0.0035 ± 0.054,0.014 ± 0.035,-0.009 ± 0.014,0.0195 ± 0.019,0.005 ± 0.0042,0.018 ± 0.02,0.0305 ± 0.033,0.004 ± 0.0085,-0.0125 ± 0.0064,-0.012 ± 0.0014,-0.049 ± 0.0085,-0.068 ± 0.02,-0.14 ± 0.034,0.0045 ± 0.016,0.018 ± 0.031,-0.01 ± 0.0085,-0.014 ± 0.014,-0.011 ± 0.0099,-0.0165 ± 0.042
CASM3C:CXCL8/IL-8,0.002 ± 0.018,-0.0065 ± 0.033,0.0015 ± 0.028,0.0135 ± 0.018,0.008 ± 0.018,0.0085 ± 0.012,0.0055 ± 0.0092,-0.0005 ± 0.0078,0.011 ± 0.021,-0.0005 ± 0.0078,0.0235 ± 0.03,0.0025 ± 0.0035,-0.0025 ± 0.0021,-0.0045 ± 0.005,0.0125 ± 0.022,0.028 ± 0.0057,-0.0005 ± 0.028,0.009 ± 0.02,-0.0015 ± 0.016,0.004 ± 0.0085,0.0105 ± 0.016
CASM3C:M-CSF,-0.006 ± 0.04,0.0105 ± 0.0092,0.009 ± 0.0085,-0.002 ± 0.0042,-0.0035 ± 0.023,0.024 ± 0.044,-0.0125 ± 0.025,0.0055 ± 0.032,0.0085 ± 0.043,0.029 ± 0.085,-0.012 ± 0.028,-0.024 ± 0.016,-0.0435 ± 0.0035,-0.044 ± 0.02,-0.068 ± 0.033,0.0225 ± 0.016,0.001 ± 0.044,0.0025 ± 0.052,-0.013 ± 0.0014,0.003 ± 0.041,0.0165 ± 0.042
CASM3C:CD87/uPAR,-0.0015 ± 0.0078,-0.0595 ± 0.05,-0.0205 ± 0.043,-0.008 ± 0.055,0.008 ± 0.035,0.008 ± 0.0057,0 ± 0.0085,-0.0105 ± 0.03,0.003 ± 0.021,0.002 ± 0.024,0.011 ± 0.0071,-0.034 ± 0.0028,-0.0235 ± 0.023,-0.029 ± 0.031,-0.031 ± 0.023,-0.0345 ± 0.042,-0.011,-0.0045 ± 0.0035,-0.0205 ± 0.013,-0.018 ± 0.033,-0.006 ± 0.013
MyoF:SRB,-0.007 ± 0.0057,0.0055 ± 0.0078,0.013 ± 0.0014,-0.0015 ± 0.0021,0.005 ± 0.0042,0 ± 0.0057,-0.0405 ± 0.05,-0.263 ± 0.16,-0.712 ± 0.15,0.0015 ± 0.00071,-0.0005 ± 0.0078,0.0105 ± 0.013,0.0005 ± 0.012,-0.005 ± 0.0014,-0.024 ± 0.0071,0 ± 0.0028,0.0035 ± 0.0035,0.002 ± 0.0057,-0.0035 ± 0.005,0.01 ± 0.023,-0.001 ± 0.0042
